PubChem BioAssay AID1224826 – NIAID, 2016
Screen: 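Knock-downs that raise or lower Tnf reporter signal after endotoxin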 (primary screen). Cell system: RAW264.7 G9 macrophages from mouse bearing reporters for p65 (GFP) and the Tnf promoter (mCherry). Reagent: siRNA pool against mouse genes, 100 nM. Time to read-out: 16 h of LPS stimulation, after 2 days of siRNA transfection. Treatment: bacterial lipopolysaccharide (Salmonella minnesota R595), 10 ng/ml. Measurement: 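Nuclear mCherry signal of the Tnf promoter reporter measured by imaging after background removal, scaled to each plate median and turned into robust z-scores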. Reading the numbers: Tnf reporter robust z-score: higher = stronger Tnf promoter reporter signal after LPS. Call rule: 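Called active when robust z-score is at most -1.3, matching the median of the Tlr4 knock-down control, or over 3; control wells and wells with under 50 cells never active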. Meaning of the calls: active = Tnf reporter clearly lowered or raised; inactive = no clear change in Tnf reporter.
The deposit covers about 17,000 reagents; below is a part drawn at random. About 1,110 of them (6.6%) count as active. 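Active means lowered or raised reporter signal; replicate intensities are raw and not normalised per plate.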 A number with no mark means an inactive call. Further read-outs or replicates are left out here. Reagent sequences are not shown.

The first 2 records, to show the layout:
target | Tnf reporter robust z-score | fewer than 50 cells in well
4930465K10Rik | – | fewer than 50 cells per well; well left out of calls
Cd209b | 0.21 | enough cells in well

The listing, from the start:
target | Tnf reporter robust z-score | fewer than 50 cells in well
4930465K10Rik | – | fewer than 50 cells per well; well left out of calls
Cd209b | 0.21 | enough cells in well
Vwf | -0.44 | enough cells in well
Adamtsl3 | 0.44 | enough cells in well
Fastkd5 | 0.49 | enough cells in well
Tro | -0.61 | enough cells in well
H2ap | 2.92 | enough cells in well
Gda | 0.01 | enough cells in well
Acot1 | 0.4 | enough cells in well
Lrrc41 | 3 | enough cells in well
Magoh | -0.31 | enough cells in well
Zdhhc7 | 0.78 | enough cells in well
Nfatc3 | -1.3 (active) | enough cells in well
S1pr4 | -0.33 | enough cells in well
Scube2 | -0.1 | enough cells in well
Slc6a5 | – | fewer than 50 cells per well; well left out of calls
Aurkc | -0.4 | enough cells in well
Selenow | 1.81 | enough cells in well
9530056K15Rik | 0.08 | enough cells in well
Elovl2 | -0.46 | enough cells in well
Rbbp7 | 0.68 | enough cells in well
Mmp20 | -0.33 | enough cells in well
Etnppl | -1.39 (active) | enough cells in well
Poglut2 | 1.01 | enough cells in well
